Article PMC9703712
Results are given in words; binding and its absence hold for the method and conditions named. In cells and extracts the contact can be indirect. Some binding calls cover weakened binding; strength is not graded here. For some of these results: Sequences can lack the tags named with a protein. Values belong to the molecule of their own block, whether it stands above or below them.

By UniProt entry, the sequences of proteins in these tests, tags left out.
UniProt Q03135: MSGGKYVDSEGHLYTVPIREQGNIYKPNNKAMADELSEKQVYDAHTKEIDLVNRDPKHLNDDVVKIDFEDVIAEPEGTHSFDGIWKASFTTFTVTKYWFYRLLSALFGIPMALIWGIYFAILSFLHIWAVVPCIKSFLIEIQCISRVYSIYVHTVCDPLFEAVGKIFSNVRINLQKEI

Experiments:
[1] = molecular target: T1, PTRF (as used in Additional file 2: Figure S3A) (human) (UniProt Q6NZI2); assay: co-IP; Figure S3A; cells, bait and constructs not given; with UBE2O
T1 sequence: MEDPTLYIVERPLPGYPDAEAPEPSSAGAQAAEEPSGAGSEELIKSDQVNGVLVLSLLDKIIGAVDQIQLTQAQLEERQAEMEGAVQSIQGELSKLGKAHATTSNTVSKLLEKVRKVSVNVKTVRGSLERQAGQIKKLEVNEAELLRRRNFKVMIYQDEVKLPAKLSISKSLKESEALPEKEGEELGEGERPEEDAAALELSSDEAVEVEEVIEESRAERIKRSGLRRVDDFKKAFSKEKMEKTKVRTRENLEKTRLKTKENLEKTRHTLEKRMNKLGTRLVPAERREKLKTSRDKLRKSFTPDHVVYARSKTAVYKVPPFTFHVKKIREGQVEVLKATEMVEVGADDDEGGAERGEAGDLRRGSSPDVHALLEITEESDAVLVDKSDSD

[2] = molecular target: T2, endogenous UBE2O (human (endogenous in HeLa, U-2 OS, U251)) (UniProt Q9C0C9); assay: co-IP; endogenous; U251 cells, a PTRF high cell line (Figure S1C); precipitating antibody not given
T2 sequence: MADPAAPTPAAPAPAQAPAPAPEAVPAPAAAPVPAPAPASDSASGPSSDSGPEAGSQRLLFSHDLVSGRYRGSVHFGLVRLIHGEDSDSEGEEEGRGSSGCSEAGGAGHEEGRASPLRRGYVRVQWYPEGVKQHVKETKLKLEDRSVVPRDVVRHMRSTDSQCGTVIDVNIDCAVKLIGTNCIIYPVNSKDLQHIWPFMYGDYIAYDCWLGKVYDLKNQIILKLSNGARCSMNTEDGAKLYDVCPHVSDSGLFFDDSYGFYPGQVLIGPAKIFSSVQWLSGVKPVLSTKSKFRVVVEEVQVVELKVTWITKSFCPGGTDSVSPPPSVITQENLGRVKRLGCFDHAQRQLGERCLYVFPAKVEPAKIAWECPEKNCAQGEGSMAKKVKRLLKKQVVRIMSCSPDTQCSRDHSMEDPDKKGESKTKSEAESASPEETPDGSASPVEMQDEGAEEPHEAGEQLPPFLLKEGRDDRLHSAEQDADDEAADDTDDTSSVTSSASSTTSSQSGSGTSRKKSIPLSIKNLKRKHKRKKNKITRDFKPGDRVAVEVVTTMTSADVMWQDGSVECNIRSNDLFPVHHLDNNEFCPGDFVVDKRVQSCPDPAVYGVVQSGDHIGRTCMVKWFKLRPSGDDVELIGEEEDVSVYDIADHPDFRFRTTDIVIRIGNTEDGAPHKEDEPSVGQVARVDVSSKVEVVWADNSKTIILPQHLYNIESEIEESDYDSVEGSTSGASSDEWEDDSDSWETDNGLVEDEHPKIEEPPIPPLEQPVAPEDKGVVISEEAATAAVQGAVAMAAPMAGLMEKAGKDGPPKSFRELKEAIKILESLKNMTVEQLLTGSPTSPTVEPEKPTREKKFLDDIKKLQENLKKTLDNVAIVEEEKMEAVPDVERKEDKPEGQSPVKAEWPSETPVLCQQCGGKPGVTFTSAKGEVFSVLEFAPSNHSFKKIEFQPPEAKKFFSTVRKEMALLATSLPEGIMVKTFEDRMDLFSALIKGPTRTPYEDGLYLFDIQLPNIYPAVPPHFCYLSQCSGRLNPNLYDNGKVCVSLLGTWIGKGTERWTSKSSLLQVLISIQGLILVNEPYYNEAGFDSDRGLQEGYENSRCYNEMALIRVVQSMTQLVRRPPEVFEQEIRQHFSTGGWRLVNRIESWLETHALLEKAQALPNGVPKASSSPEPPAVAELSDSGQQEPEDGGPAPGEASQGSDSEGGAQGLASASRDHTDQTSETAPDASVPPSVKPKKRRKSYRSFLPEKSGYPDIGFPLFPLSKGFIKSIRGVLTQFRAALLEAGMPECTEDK

Flag-PTRF (human) [3] = molecular target: T3, Flag-PTRF (human) (UniProt Q6NZI2); assay: co-IP; HEK293T cells co-transfected (PEI); lysed in WCE lysis buffer (10% glycerol, 150 mM NaCl, 50 mM Tris-HCl pH 8.0, 0.5% NP40); Flag M2 beads, 4 °C, 1.5 h; western blot
T3 sequence: T1 sequence

[4] = molecular target: T4, endogenous PTRF (human (endogenous in HeLa, U-2 OS, U251)) (UniProt Q6NZI2); assay: co-IP; endogenous; U-2 OS cells (Figure S1B); precipitating antibody not given
T4 sequence: T1 sequence

[5] = molecular target: T4, endogenous PTRF (human (endogenous in HeLa, U-2 OS, U251)); assay: co-IP; endogenous; HeLa lysate with PTRF antibody overnight, protein A resin 2 h; western blot
[6] = molecular target: T4, endogenous PTRF (human (endogenous in HeLa, U-2 OS, U251)); assay: co-IP; endogenous; U251 cells, a PTRF high cell line (Figure S1C); precipitating antibody not given
Flag-PTRF (human) [7] = molecular target: T3, Flag-PTRF (human); assay: co-IP; semi-endogenous; HeLa cells expressing the Flag-tagged bait, Flag M2 beads, endogenous partner detected by western blot; for PTRF with SDPR with or without overexpressed UBE2O-Myc
Flag-SDPR (human) = molecular target: T5, Flag-SDPR (human) (UniProt O95810); assay: as above
T5 sequence: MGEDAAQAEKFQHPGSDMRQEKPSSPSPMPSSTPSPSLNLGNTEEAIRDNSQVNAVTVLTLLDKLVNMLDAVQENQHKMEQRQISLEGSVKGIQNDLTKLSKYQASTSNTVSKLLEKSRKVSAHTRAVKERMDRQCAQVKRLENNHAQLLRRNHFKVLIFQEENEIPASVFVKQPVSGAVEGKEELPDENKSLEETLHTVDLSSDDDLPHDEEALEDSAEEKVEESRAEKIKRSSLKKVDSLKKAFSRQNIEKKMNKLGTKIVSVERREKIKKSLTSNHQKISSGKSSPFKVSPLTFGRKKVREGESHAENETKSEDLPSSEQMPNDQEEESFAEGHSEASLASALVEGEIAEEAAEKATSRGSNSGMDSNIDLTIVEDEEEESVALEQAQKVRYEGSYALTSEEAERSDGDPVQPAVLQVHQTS

Flag-UBE2O = molecular target: T6, Flag-UBE2O (UniProt Q9C0C9); assay: as above
T6 sequence: T2 sequence

Molecule: caveolin-1 (CAV1) (from UniProt Q03135 1-178)
binding [1]: binds
binding [2]: binds

B1: UBE2O-Myc (enzyme, UniProt Q9C0C9 1-1292)
chain: T2 sequence
binding (Flag-PTRF (human) [3]): binds

Other lines, results leading:

binding [4]: binds
binding [5]: binds
binding [6]: binds
binding (Flag-PTRF (human) [7]): binds
binding (Flag-SDPR (human)): binds
B2: endogenous UBE2O (enzyme, UniProt Q9C0C9 1-1292)
chain: T2 sequence

binding (Flag-PTRF (human) [7]): binds
binding (Flag-UBE2O): binds
B3: endogenous SDPR (protein, UniProt O95810 1-425)
chain: T5 sequence
